{"source": "PubChem BioAssay AID1347423", "about": "(Functional Genomics Laboratory (NCATS/FGL), 2020)", "note": "Out of some 52,000 sequences screened, about 210 (0.4%) were called active.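 The calls were made as follows: active = gene whose silencing raises cell survival under the drug, median off-target-corrected z-score across its silencing RNAs 2 or more; inactive = the rest.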 The list shows a part of the results.", "data": [{"test": "Resistance to Poly (ADP-Ribose) Polymerase inhibitor: Gene Identification via Genome-wide siRNA Screen", "details": "mouse BRCA2 R2336H ES cells, olaparib, CellTiter-Glo viability; active compounds read high", "in_short": "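Genome-wide siRNA screen (3 siRNAs/gene, 20 nM) in mouse ES cells carrying hypomorphic BRCA2 R2336H; olaparib 500 nM added 48 h post-transfection, CellTiter-Glo viability 72 h later. Normalized to plate-median negative control; MAD z-scores, gene median, seed-adjusted.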", "values": [{"sequence": "GGACGGCAGAAGUACAAACTT against Esrra", "z-score": "inactive: 0.435"}, {"sequence": "CCUGUAAUGGGAAAUGGCCTT against D7Ertd680e", "z-score": "inactive: 1.12"}, {"sequence": "GGACCAAGGAAUAUUUCCCTT against Serpinb9b", "z-score": "inactive: 0.752"}, {"sequence": "GGUCAUUGGUAGGUCCACUTT against Rusc2", "z-score": "inactive: 0.741"}, {"sequence": "GCGGAACCUCAAGUUCAGATT against Taf3", "z-score": "inactive: -0.521"}, {"sequence": "CGUGGAUGAUACCAAAAUGTT against BC055811", "z-score": "inactive: 0.442"}, {"sequence": "GGGUAACACCUCAAGUUCATT against Rhag", "z-score": "inactive: 2.01"}, {"sequence": "GUGCUUGUGGAGGGUUUCUTT against Ctsg", "z-score": "inactive: 1.59"}, {"sequence": "CCAAGGAAUGUUGUGUUUATT against Osp94", "z-score": "inactive: -0.82"}, {"sequence": "GGAAUGGUUUUAUUUUUGGTT against 2610024G14Rik", "z-score": "inactive: -0.36"}, {"sequence": "GCCUUUUCCCGUCUGGAGATT against Glis1", "z-score": "inactive: 1.56"}, {"sequence": "GGGACAGUGUCCCUUCCUUTT against Cox15", "z-score": "inactive: -1.53"}, {"sequence": "ACUAUCAUGAGUAGGCCCATT against Olfr32", "z-score": "inactive: 0.878"}, {"sequence": "GCAGCGAGGUUAUCAGUAATT against Sox8", "z-score": "inactive: -1.16"}, {"sequence": "GCAUUAUGGUAGAAGUGGCTT against 4933407P14Rik", "z-score": "inactive: -1.14"}, {"sequence": "GGAUAGAAACAUCUUGUCUTT against Mcsp", "z-score": "inactive: -0.441"}, {"sequence": "GGUAUGAUGAUUGUUAGAUTT against 6820402O20Rik", "z-score": "inactive: 1.23"}, {"sequence": "GGACUAUGGAACCUUCACCTT against AI256711", "z-score": "inactive: 2.64"}, {"sequence": "GCGAGAAUCUUUUUGAGCUTT against Rpgrip1", "z-score": "inactive: -0.554"}, {"sequence": "GGUUUUAUCUGCUCUUCCATT against Cpb2", "z-score": "inactive: 1.26"}, {"sequence": "CCAAAGACCUAUGUAAGCUTT against Akap1", "z-score": "inactive: -1.22"}, {"sequence": "GGUUUCAUGUUCUUUCUAATT against Cxcl14", "z-score": "inactive: -1.34"}, {"sequence": "GGACACAAUCCAGAACCAGTT against Angpt4", "z-score": "inactive: -2.77"}, {"sequence": "GCAAACCUGAAGUUUAUGATT against 2510038A11Rik", "z-score": "inactive: 0.323"}, {"sequence": "GUUCCACCAGAUUUUCUAATT against V1rc25", "z-score": "inactive: 0.825"}, {"sequence": "GGAGAAGUGGAAAAGCAUGTT against Hcls1", "z-score": "inactive: 2.44"}, {"sequence": "GGGUGUUGUGCGAAAAGAATT against Cxcl1", "z-score": "inactive: -2.06"}, {"sequence": "GGGAAAGAAGAAACAAGCATT against Rgs18", "z-score": "inactive: -0.0332"}, {"sequence": "CCUUUGAUAUGGGCACAACTT against Nox3", "z-score": "inactive: 0.798"}, {"sequence": "GGAUAAUUGGGAUGAUGACTT against Shfdg1", "z-score": "inactive: -3"}, {"sequence": "GGAAAAGAACAGAAUAUAGTT against Dcc", "z-score": "inactive: -1.82"}, {"sequence": "GGAGCCCAGAACAGAUAAUTT against Chit1", "z-score": "inactive: 0.18"}, {"sequence": "GCCACAGGCCAAGAUCAUUTT against Pafah1b2", "z-score": "inactive: 0.256"}, {"sequence": "GGAGGGAGAGUGAAUUGUCTT against Hmgn3", "z-score": "inactive: -0.746"}, {"sequence": "CUUUUCAUCACGAUCCUCUTT against Olfr998", "z-score": "inactive: -0.44"}, {"sequence": "GGGUAUCUUCUGGAAAACATT against Angptl4", "z-score": "inactive: 0.203"}, {"sequence": "GGCCUUCAGUCAAGCAUCATT against Myom1", "z-score": "inactive: 1.85"}, {"sequence": "GGAAAACCUACCGAAGUUATT against Irf3", "z-score": "inactive: 0.489"}, {"sequence": "GGAGAUGCCUCACAUGCAGTT against Col8a1", "z-score": "inactive: -0.0938"}, {"sequence": "GGAUCAAGUGGCUUCUGUGTT against Olfr1099", "z-score": "inactive: -1.67"}, {"sequence": "GGAGACCUCGAUCACAUCATT against Dutp", "z-score": "inactive: -0.819"}, {"sequence": "GUUUAUGGCCUCCUGUUGCTT against Gpbar1", "z-score": "inactive: 1.47"}, {"sequence": "CCUUAGGAUCGUCUUAUUATT against Zic2", "z-score": "inactive: -0.309"}, {"sequence": "GGAACAUCAAUCCAAAUCCTT against 4930432H15Rik", "z-score": "inactive: 0.0472"}, {"sequence": "CCGGUCACCAAAUGACUUATT against D830013H12", "z-score": "inactive: -0.321"}, {"sequence": "GGUCAUCGUGUGCAACCUCTT against Zcchc3", "z-score": "inactive: -0.52"}, {"sequence": "CGCAUUUAACUCCUUACUCTT against Slc25a12", "z-score": "inactive: 1.09"}, {"sequence": "GGAUUACCUGAACAGCGAUTT against Atbf1", "z-score": "inactive: 0.52"}, {"sequence": "CGUAUAUUUUGGGCCAACATT against Zfp612", "z-score": "inactive: 0.368"}, {"sequence": "GGCCAGAAAGGCAGCAAAGTT against Msgn1", "z-score": "inactive: 1.99"}, {"sequence": "GGUCUAUGCUUUGCUUUACTT against Dmap1", "z-score": "inactive: -0.815"}, {"sequence": "GGCUUGCUUGUUCAGACACTT against Olfr1324", "z-score": "inactive: 0.478"}, {"sequence": "GGUGUUGAUCCUAUUAUUUTT against Nup54", "z-score": "inactive: -2.59"}, {"sequence": "GGCUUCCAAGCAAAAAUCUTT against Krtcap2", "z-score": "inactive: -0.885"}, {"sequence": "GGUAAAAUUUGACGACACGTT against Klhl6", "z-score": "inactive: 0.299"}, {"sequence": "CCCAAGUGAACUAAUAAAGTT against Mrps15", "z-score": "inactive: -0.162"}, {"sequence": "GCUGGUGAACCAAAAACUCTT against Ccdc3", "z-score": "inactive: -0.0868"}, {"sequence": "GUGUGAACACAAUCAACCUTT against Ifna6", "z-score": "inactive: -0.925"}, {"sequence": "CCUAACAUUACUGAUGAUUTT against Narg2", "z-score": "inactive: -1.32"}, {"sequence": "GGACAAGAAGAUAUUACUUTT against Ocln", "z-score": "inactive: -0.48"}, {"sequence": "GGUCUGUAAGCUACCUAAUTT against B430216B18Rik", "z-score": "inactive: 1.53"}, {"sequence": "GGCUUCUAUUGCCAUAAUGTT against Olfr380", "z-score": "inactive: 0.696"}, {"sequence": "CCAGUGCGUUUGAGAUUGATT against Aanat", "z-score": "inactive: 1.27"}, {"sequence": "GCUUCAAGAGACAAAACUCTT against Wsb1", "z-score": "inactive: 0.238"}, {"sequence": "GGAGAUCAUGUUUAAGAAUTT against Nicn1", "z-score": "inactive: 0.00115"}, {"sequence": "GGAAUGCUUUAUAAGUACATT against A930031F18Rik", "z-score": "inactive: -1.29"}, {"sequence": "GGCUCUGGUGAACUACAUGTT against Olfr1378", "z-score": "inactive: -0.501"}]}]}
